These are yes or no findings as the source states them, for the method shown. Binding seen in cells or lysates may run through a third protein. These calls come from enrichment with a bait or labelling near it, and not all partners need be listed. For part of these data: A no says only that the protein was not detected with the bait. For part of these data: Tags and fused reporters may be left off the sequences shown.
Columns and labels:
Test in all cases: affinity purification with mass spectrometry; 100 mg HeLa nuclear extract of cells stably expressing the Flag-tagged bait, dialysed in BC250 (50 mM Tris pH 8.0, 250 mM KCl, 1 mM EDTA, 10% glycerol), anti-FLAG M2 affinity gel overnight, washed with BC250 + 0.05% NP-40, eluted with 0.2 mg/ml Flag peptide; compared with empty vector cells
[1] = molecular target: T1, Flag-tagged KDM1B (2xFlag-2xHA-KDM1B) expressed in HeLa cells (UniProt Q8NB78)
T1 sequence: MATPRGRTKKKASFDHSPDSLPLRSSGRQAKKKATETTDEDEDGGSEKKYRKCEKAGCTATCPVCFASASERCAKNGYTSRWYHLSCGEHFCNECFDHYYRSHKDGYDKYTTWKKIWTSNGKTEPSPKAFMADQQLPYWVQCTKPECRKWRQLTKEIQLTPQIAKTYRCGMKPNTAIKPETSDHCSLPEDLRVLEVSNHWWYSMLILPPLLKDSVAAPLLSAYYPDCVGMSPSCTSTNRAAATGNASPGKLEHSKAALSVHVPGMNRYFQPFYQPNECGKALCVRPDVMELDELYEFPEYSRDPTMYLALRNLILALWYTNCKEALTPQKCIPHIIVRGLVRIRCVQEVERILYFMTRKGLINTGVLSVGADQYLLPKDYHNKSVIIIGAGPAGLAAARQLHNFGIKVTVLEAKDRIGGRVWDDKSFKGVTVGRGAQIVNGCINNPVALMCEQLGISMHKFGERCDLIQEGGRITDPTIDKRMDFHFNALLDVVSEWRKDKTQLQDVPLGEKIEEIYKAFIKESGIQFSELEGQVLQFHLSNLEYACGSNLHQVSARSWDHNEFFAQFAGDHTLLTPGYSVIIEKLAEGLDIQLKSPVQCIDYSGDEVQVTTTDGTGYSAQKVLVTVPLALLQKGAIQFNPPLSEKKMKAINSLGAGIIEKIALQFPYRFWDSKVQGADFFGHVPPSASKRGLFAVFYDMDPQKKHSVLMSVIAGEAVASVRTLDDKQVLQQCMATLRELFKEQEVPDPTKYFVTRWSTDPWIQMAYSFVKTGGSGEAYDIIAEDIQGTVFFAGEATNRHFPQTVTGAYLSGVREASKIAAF

Chains of the proteins cited; added tags and fusions are not shown.
UniProt Q92560: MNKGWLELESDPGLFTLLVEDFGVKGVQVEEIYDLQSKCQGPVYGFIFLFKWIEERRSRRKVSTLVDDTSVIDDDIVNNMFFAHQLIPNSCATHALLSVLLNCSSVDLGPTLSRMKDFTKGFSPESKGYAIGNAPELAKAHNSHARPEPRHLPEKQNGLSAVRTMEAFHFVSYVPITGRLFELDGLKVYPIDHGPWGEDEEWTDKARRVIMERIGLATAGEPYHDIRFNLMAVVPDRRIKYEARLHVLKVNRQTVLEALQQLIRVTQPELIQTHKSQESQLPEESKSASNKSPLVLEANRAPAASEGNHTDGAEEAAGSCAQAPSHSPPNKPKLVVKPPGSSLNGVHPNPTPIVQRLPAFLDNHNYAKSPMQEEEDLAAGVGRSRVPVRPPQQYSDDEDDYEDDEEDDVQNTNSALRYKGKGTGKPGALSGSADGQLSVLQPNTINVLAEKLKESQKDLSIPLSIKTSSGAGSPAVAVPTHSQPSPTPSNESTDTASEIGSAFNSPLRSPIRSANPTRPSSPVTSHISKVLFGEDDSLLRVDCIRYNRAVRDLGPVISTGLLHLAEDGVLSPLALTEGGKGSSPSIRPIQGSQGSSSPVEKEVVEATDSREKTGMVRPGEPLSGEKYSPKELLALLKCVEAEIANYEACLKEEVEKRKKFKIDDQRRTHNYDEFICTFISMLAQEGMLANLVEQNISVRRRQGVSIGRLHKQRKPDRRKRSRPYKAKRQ
UniProt Q76L83: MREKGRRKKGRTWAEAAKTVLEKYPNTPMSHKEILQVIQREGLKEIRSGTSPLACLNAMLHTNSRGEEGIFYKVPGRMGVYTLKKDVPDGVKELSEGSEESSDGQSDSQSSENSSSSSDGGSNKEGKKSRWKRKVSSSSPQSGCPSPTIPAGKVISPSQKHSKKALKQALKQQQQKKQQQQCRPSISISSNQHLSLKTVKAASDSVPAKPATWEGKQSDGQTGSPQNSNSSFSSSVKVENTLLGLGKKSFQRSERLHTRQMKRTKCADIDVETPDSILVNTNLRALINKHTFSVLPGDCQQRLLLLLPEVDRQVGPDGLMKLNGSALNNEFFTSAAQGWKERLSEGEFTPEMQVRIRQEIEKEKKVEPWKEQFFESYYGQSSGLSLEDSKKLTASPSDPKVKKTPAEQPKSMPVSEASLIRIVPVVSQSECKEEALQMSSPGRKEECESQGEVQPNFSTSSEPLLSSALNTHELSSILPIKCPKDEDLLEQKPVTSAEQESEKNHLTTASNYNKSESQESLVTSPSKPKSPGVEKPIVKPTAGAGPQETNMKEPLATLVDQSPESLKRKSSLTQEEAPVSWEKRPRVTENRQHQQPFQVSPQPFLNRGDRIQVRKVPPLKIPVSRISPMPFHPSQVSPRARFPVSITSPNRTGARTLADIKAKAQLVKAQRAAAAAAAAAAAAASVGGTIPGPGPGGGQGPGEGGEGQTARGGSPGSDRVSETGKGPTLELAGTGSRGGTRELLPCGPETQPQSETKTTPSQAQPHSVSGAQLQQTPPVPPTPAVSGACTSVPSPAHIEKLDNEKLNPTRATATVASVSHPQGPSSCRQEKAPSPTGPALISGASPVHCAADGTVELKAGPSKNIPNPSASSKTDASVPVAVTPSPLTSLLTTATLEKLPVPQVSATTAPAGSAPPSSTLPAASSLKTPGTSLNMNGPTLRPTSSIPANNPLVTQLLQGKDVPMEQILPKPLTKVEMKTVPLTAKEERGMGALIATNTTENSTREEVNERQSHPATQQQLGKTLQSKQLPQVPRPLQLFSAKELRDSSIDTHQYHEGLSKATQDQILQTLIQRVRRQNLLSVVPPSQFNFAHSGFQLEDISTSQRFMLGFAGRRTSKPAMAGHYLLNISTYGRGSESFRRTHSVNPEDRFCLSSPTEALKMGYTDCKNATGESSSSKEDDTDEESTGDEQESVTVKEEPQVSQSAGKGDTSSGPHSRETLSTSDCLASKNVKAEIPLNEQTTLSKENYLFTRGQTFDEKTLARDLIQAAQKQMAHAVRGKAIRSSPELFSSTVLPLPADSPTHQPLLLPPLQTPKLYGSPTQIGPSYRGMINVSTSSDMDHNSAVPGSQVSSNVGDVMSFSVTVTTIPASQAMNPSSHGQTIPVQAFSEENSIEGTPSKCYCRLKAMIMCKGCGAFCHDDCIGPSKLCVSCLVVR
UniProt Q01167: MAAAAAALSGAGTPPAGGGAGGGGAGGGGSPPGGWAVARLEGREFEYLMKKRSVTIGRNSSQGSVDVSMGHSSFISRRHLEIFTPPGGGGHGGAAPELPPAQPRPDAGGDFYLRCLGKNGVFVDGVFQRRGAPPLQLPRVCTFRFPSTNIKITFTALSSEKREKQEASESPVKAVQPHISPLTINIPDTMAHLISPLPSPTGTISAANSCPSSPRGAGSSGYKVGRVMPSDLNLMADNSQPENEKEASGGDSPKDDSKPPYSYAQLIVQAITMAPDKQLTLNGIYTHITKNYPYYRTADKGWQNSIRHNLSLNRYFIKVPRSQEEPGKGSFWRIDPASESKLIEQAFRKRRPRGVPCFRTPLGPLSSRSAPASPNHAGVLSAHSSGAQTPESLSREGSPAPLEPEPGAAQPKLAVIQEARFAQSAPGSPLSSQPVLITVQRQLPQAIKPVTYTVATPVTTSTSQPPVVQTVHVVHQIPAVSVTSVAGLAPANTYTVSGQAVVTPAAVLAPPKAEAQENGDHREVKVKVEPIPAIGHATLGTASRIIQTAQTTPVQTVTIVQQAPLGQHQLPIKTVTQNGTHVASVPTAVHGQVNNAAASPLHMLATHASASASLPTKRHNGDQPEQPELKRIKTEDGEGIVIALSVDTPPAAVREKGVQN
UniProt Q9BZ95: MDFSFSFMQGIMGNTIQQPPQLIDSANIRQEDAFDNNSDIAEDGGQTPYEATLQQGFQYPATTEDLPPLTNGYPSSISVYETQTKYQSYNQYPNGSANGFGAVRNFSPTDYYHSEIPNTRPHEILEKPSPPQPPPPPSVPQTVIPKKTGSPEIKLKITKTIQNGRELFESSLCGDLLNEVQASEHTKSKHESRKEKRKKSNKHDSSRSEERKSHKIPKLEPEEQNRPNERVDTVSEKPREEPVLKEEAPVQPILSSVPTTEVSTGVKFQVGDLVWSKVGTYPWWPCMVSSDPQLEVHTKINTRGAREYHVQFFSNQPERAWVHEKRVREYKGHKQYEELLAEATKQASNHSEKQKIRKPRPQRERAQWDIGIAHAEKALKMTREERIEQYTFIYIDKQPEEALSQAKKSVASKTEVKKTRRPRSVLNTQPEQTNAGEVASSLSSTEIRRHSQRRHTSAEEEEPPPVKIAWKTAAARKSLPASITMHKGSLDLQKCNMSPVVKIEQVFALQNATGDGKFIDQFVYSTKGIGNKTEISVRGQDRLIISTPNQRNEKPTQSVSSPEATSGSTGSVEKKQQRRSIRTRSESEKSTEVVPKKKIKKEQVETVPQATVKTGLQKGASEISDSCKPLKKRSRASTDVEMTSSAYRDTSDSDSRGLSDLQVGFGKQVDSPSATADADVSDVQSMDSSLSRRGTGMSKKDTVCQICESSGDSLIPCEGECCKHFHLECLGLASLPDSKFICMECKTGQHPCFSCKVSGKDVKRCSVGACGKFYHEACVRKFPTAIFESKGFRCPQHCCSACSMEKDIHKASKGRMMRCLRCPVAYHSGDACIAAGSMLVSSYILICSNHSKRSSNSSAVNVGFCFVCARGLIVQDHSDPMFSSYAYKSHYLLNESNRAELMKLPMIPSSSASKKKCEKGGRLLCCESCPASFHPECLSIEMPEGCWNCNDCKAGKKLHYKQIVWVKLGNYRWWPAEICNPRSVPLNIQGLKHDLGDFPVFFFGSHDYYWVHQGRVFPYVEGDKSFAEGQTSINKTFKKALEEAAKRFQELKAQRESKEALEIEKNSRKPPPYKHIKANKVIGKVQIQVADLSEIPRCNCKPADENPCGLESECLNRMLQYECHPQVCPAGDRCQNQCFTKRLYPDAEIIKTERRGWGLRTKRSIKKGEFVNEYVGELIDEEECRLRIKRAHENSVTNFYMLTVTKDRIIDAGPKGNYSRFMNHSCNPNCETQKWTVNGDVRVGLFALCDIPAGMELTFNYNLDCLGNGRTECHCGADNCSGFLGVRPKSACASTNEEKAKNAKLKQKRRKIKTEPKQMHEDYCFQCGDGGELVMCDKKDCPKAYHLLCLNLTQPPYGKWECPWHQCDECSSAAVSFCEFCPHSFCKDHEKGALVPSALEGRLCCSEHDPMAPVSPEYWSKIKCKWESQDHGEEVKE

[2] = molecular target: Flag-tagged BAP1 (2xFlag-2xHA-BAP1) overexpressed in HeLa cells (UniProt Q92560)
[3] = molecular target: Flag-tagged ASXL2 (2xFlag-2xHA-ASXL2) overexpressed in HeLa cells (UniProt Q76L83)

In the case of “ASXL2 (endogenous, HeLa) (from UniProt Q76L83 1-1435)”, the binding [1] is reported as “binds”.

With “FOXK2 (endogenous, HeLa) (from UniProt Q01167 1-660)” the binding [1] was “no binding”.

With “HCFC1 (endogenous, HeLa) (human (endogenous in HeLa))” the binding [1] was “no binding”.

With “NSD3 (endogenous, HeLa) (from UniProt Q9BZ95 1-1437) (enzyme)” the binding [1] was “binds”.

B1: MBD5 (endogenous, HeLa) (protein, UniProt Q9P267 1-1494)
chain: MNGGKECDGGDKEGGLPAIQVPVGWQRRVDQNGVLYVSPSGSLLSCLEQVKTYLLTDGTCKCGLECPLILPKVFNFDPGAAVKQRTAEDVKADEDVTKLCIHKRKIIAVATLHKSMEAPHPSLVLTSPGGGTNATPVVPSRAATPRSVRNKSHEGITNSVMPECKNPFKLMIGSSNAMGRLYVQELPGSQQQELHPVYPRQRLGSSEHGQKSPFRGSHGGLPSPASSGSQIYGDGSISPRTDPLGSPDVFTRSNPGFHGAPNSSPIHLNRTPLSPPSVMLHGSPVQSSCAMAGRTNIPLSPTLTTKSPVMKKPMCNFSTNMEIPRAMFHHKPPQGPPPPPPPSCALQKKPLTSEKDPLGILDPIPSKPVNQNPVIINPTSFHSNVHSQVPMMNVSMPPAVVPLPSNLPLPTVKPGHMNHGSHVQRVQHSASTSLSPSPVTSPVHMMGTGIGRIEASPQRSRSSSTSSDHGNFMMPPVGPQATSSGIKVPPRSPRSTIGSPRPSMPSSPSTKSDGHHQYKDIPNPLIAGISNVLNTPSSAAFPTASAGSSSVKSQPGLLGMPLNQILNQHNAASFPASSLLSAAAKAQLANQNKLAGNNSSSSSNSGAVAGSGNTEGHSTLNTMFPPTANMLLPTGEGQSGRAALRDKLMSQQKDALRKRKQPPTTVLSLLRQSQMDSSAVPKPGPDLLRKQGQGSFPISSMSQLLQSMSCQSSHLSSNSTPGCGASNTALPCSANQLHFTDPSMNSSVLQNIPLRGEAVHCHNANTNFVHSNSPVPNHHLAGLINQIQASGNCGMLSQSGMALGNSLHPNPPQSRISTSSTPVIPNSIVSSYNQTSSEAGGSGPSSSIAIAGTNHPAITKTTSVLQDGVIVTTAAGNPLQSQLPIGSDFPFVGQEHALHFPSNSTSNNHLPHPLNPSLLSSLPISLPVNQQHLLNQNLLNILQPSAGEGDMSSINNTLSNHQLTHLQSLLNNNQMFPPNQQQQQLLQGYQNLQAFQGQSTIPCPANNNPMACLFQNFQVRMQEDAALLNKRISTQPGLTALPENPNTTLPPFQDTPCELQPRIDPSLGQQVKDGLVVGGPGDASVDAIYKAVVDAASKGMQVVITTAVNSTTQISPIPALSAMSAFTASIGDPLNLSSAVSAVIHGRNMGGVDHDGRLRNSRGARLPKNLDHGKNVNEGDGFEYFKSASCHTSKKQWDGEQSPRGERNRWKYEEFLDHPGHIHSSPCHERPNNVSTLPFLPGEQHPILLPPRNCPGDKILEENFRYNNYKRTMMSFKERLENTVERCAHINGNRPRQSRGFGELLSTAKQDLVLEEQSPSSSNSLENSLVKDYIHYNGDFNAKSVNGCVPSPSDAKSISSEDDLRNPDSPSSNELIHYRPRTFNVGDLVWGQIKGLTSWPGKLVREDDVHNSCQQSPEEGKVEPEKLKTLTEGLEAYSRVRKRNRKSGKLNNHLEAAIHEAMSELDKMSGTVHQIPQGDRQMRPPKPKRRKISR
In the case of B1, the binding [2] is reported as “binds”.

B2: KDM1B (endogenous, HeLa) (enzyme, UniProt Q8NB78 1-822)
chain: MATPRGRTKKKASFDHSPDSLPLRSSGRQAKKKATETTDEDEDGGSEKKYRKCEKAGCTATCPVCFASASERCAKNGYTSRWYHLSCGEHFCNECFDHYYRSHKDGYDKYTTWKKIWTSNGKTEPSPKAFMADQQLPYWVQCTKPECRKWRQLTKEIQLTPQIAKTYRCGMKPNTAIKPETSDHCSLPEDLRVLEVSNHWWYSMLILPPLLKDSVAAPLLSAYYPDCVGMSPSCTSTNRAAATGNASPGKLEHSKAALSVHVPGMNRYFQPFYQPNECGKALCVRPDVMELDELYEFPEYSRDPTMYLALRNLILALWYTNCKEALTPQKCIPHIIVRGLVRIRCVQEVERILYFMTRKGLINTGVLSVGADQYLLPKDYHNKSVIIIGAGPAGLAAARQLHNFGIKVTVLEAKDRIGGRVWDDKSFKGVTVGRGAQIVNGCINNPVALMCEQLGISMHKFGERCDLIQEGGRITDPTIDKRMDFHFNALLDVVSEWRKDKTQLQDVPLGEKIEEIYKAFIKESGIQFSELEGQVLQFHLSNLEYACGSNLHQVSARSWDHNEFFAQFAGDHTLLTPGYSVIIEKLAEGLDIQLKSPVQCIDYSGDEVQVTTTDGTGYSAQKVLVTVPLALLQKGAIQFNPPLSEKKMKAINSLGAGIIEKIALQFPYRFWDSKVQGADFFGHVPPSASKRGLFAVFYDMDPQKKHSVLMSVIAGEAVASVRTLDDKQVLQQCMATLRELFKEQEVPDPTKYFVTRWSTDPWIQMAYSFVKTGGSGEAYDIIAEDIQGTVFFAGEATNRHFPQTVTGAYLSGVREASKIAAF
For B2, the binding [3] was “binds”.

— PMC6341105
